Assay results as given in the supplement of paper PMC10849652.
This is one part of the list.

Amino acid sequences for entries named in this document (tags omitted). A change or cut given only in a name is not applied to a line headed by its entry.
UniProt Q8WUH1: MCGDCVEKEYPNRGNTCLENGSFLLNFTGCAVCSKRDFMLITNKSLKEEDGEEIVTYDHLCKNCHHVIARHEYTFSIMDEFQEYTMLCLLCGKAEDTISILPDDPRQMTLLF
UniProt Q96FZ7: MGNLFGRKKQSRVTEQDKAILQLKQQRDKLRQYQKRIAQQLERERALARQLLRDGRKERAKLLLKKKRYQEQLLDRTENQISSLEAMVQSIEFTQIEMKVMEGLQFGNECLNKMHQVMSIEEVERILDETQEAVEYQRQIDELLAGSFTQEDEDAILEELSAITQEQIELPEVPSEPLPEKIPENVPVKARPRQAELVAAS
UniProt Q7Z7K0: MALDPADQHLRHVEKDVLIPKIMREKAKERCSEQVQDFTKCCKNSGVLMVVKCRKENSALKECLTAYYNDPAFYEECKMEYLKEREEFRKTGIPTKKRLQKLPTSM
UniProt Q9GZY4: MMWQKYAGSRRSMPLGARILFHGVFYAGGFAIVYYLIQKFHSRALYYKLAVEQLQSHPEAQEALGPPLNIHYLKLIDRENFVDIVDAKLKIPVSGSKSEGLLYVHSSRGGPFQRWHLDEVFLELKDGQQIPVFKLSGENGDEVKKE
UniProt Q9BW66: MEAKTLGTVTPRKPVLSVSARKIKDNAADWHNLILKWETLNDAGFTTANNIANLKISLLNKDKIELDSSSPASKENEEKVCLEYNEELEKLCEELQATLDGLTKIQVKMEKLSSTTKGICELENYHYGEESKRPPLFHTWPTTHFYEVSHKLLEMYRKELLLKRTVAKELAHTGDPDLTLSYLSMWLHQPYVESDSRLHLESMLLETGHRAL
UniProt Q96BR5: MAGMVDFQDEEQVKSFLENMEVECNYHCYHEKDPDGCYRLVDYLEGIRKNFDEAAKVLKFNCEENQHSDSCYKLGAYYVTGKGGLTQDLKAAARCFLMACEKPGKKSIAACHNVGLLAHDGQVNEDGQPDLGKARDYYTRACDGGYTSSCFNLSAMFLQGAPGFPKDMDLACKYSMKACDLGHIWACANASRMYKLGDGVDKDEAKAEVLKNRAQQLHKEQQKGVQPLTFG
UniProt P39060, whole entry, looked up: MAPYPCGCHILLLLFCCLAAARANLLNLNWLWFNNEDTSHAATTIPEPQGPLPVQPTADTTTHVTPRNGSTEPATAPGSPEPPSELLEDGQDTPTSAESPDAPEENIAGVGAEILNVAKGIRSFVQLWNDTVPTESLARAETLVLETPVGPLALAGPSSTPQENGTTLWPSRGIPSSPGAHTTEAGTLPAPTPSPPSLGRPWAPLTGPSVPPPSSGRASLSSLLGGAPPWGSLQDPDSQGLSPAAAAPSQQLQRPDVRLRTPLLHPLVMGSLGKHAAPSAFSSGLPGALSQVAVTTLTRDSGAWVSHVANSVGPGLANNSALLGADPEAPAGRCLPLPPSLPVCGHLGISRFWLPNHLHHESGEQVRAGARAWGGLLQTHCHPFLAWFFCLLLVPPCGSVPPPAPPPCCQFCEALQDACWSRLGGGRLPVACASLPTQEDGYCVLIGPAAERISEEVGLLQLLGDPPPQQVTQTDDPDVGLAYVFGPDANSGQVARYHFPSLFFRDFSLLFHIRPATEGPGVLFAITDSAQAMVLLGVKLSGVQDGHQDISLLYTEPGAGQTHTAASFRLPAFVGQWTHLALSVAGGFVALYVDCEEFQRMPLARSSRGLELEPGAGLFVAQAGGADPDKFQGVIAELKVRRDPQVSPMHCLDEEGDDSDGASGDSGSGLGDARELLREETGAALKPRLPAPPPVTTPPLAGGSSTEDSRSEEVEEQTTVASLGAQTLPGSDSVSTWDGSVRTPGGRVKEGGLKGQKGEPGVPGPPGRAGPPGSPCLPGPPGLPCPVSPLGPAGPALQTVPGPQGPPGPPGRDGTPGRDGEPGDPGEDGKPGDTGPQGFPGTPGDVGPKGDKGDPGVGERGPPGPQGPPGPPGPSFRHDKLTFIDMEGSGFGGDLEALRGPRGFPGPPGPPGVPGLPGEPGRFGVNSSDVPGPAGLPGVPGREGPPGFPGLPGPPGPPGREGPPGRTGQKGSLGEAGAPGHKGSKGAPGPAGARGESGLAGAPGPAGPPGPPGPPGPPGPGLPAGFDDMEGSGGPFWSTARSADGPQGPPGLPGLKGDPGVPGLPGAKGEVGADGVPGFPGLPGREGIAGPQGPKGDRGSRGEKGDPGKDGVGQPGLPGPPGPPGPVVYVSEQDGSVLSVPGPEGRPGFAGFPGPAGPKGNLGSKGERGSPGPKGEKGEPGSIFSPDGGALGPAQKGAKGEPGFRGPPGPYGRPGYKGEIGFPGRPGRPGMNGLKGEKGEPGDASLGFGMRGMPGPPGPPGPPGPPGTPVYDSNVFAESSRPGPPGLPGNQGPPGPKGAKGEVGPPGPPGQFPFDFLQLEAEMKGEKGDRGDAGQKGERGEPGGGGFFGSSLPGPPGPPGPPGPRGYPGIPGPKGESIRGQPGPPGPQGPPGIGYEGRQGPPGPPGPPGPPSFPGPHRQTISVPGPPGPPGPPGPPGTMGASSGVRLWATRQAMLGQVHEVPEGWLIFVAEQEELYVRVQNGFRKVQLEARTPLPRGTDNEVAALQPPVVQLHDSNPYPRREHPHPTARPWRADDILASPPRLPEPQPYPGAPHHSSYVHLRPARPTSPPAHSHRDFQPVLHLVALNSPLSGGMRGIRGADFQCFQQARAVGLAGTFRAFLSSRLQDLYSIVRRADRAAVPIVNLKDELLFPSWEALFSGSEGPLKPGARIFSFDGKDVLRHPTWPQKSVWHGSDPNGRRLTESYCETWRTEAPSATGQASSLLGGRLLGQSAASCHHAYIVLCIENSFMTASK
UniProt Q9Y2B0: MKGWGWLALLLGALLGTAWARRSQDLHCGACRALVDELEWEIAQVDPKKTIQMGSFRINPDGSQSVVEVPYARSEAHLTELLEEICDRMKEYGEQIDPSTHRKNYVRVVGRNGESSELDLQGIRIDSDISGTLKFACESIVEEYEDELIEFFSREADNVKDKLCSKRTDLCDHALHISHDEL
UniProt Q92600, whole entry, looked up: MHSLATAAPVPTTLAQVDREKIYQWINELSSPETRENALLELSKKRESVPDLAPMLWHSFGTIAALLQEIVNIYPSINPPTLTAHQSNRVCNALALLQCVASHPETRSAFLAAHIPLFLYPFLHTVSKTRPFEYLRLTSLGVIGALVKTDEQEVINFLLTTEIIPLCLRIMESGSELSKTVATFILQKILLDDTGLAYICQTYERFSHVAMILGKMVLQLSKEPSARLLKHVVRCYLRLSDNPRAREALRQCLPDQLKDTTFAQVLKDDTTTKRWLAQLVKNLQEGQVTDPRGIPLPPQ
UniProt Q14008: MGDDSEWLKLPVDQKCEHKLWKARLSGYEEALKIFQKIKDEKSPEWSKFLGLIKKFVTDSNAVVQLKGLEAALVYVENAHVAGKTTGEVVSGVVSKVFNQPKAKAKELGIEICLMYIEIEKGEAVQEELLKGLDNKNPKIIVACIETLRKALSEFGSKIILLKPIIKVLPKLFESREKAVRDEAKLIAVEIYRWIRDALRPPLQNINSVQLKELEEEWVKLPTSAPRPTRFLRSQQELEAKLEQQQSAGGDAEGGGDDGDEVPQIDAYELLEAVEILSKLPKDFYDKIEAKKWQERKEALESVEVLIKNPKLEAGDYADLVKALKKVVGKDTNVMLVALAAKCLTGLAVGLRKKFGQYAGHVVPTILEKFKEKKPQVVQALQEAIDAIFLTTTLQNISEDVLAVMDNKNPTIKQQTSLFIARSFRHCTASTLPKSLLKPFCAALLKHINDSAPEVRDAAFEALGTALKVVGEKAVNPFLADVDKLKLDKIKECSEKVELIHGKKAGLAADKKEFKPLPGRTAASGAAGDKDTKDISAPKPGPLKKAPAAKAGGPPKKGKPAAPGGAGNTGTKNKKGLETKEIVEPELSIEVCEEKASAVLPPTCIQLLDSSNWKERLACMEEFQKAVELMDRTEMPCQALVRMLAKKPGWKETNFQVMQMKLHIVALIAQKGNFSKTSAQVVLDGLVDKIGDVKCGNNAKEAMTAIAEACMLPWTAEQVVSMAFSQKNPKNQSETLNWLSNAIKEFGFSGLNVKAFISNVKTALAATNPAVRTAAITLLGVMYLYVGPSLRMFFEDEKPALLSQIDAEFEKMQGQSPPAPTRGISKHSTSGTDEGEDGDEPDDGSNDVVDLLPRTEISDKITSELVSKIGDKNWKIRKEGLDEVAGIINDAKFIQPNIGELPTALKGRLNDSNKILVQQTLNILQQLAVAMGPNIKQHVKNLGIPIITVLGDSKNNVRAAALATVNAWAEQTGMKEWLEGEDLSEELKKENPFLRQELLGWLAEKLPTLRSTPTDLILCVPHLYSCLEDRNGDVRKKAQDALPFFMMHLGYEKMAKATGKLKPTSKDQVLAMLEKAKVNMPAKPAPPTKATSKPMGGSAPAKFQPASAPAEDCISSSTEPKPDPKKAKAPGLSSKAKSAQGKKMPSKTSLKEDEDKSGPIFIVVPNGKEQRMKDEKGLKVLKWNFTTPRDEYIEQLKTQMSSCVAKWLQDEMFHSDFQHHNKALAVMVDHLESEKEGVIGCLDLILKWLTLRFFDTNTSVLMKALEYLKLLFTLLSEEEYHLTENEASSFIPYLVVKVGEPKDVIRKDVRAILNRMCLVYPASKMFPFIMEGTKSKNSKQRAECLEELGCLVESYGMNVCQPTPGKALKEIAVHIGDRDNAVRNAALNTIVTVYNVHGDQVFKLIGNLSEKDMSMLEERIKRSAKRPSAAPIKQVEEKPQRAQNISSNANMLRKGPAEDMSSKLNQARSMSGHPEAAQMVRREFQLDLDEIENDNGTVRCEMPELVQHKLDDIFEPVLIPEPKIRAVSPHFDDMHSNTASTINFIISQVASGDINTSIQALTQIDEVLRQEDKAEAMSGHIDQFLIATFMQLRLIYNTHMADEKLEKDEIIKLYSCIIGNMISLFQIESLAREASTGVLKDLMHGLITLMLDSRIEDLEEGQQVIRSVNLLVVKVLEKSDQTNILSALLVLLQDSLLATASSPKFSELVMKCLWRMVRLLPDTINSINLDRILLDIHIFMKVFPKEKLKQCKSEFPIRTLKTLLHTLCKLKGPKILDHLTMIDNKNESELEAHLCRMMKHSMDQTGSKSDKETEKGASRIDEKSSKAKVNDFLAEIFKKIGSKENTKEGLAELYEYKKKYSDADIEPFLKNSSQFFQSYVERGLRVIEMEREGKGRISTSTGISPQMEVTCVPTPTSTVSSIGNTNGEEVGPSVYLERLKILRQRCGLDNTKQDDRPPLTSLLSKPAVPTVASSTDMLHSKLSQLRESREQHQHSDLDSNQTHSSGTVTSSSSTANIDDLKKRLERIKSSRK
UniProt Q96DG6: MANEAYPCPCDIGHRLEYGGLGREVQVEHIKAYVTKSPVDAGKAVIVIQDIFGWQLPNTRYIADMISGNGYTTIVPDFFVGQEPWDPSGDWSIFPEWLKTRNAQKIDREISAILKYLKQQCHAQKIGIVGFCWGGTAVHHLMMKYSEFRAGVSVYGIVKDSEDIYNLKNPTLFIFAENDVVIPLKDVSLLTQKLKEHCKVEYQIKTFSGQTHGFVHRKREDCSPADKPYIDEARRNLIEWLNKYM
UniProt Q8N3C7: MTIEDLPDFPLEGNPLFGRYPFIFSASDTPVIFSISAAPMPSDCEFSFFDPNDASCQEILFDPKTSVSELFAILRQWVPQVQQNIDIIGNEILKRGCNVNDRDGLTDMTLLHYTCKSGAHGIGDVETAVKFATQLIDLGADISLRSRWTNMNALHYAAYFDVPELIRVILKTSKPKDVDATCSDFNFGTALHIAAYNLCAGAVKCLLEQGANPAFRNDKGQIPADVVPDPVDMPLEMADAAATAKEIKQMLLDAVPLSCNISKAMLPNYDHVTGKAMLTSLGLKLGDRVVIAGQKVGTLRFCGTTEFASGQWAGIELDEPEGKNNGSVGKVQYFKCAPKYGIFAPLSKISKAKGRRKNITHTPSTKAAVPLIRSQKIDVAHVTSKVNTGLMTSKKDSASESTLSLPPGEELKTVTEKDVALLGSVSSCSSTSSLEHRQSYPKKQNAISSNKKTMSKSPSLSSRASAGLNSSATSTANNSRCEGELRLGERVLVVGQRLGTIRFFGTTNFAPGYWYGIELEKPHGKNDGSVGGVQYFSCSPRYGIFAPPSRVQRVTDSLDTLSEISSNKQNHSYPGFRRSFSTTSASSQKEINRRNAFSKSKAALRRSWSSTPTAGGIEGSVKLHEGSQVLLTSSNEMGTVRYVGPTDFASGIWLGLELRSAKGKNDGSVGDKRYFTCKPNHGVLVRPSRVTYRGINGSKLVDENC
UniProt O76071: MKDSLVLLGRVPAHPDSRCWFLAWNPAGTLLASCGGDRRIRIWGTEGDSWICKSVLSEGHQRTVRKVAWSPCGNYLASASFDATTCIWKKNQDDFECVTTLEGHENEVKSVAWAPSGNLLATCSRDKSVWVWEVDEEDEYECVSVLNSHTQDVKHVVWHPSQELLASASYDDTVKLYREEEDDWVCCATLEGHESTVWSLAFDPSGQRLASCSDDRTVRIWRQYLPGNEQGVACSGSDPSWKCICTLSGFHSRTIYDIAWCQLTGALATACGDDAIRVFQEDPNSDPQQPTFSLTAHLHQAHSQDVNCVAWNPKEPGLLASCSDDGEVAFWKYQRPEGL

compound: O=C(CCCCCCNC(=O)c1cnc(N(c2ccccc2)c2ccccc2Cl)nc1)NO [citarinostat]; assay: log2 fold change, soluble protein after heating vs DMSO (PISA); higher = thermal stabilisation; K562 cells, 10 uM, 30 min; active = over 0.2 and 3.5 SD of the protein, either way, in both replicates (recomputed)
Summary of the method: (§1)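 For each measurement, 10 μM compound was applied for 30 min to K562 cells at 2×10^6 cells/mL. Aliquots were heated for 3 min across 48°C-58°C, pooled, and extracted in PBS with 0.5% NP-40 at 4°C; the supernatant after 21,000xg for 90 min was soluble protein. This was quantified by TMTpro 16plex LC-MS/MS with channel sums equalised, and thermal stability was reported relative to control samples from duplicates, on a log2 fold-change scale.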

log2 fold change, inactive:
CHURC1 isoform 2 (UniProt Q8WUH1) 0.068
CMPK1 (UniProt P30085) 0.013
CHMP6 (UniProt Q96FZ7) 0.017
COA3 (UniProt Q9Y2R0) -0.027
CLPB isoform 2 (UniProt Q9H078) 0.011
CMPK2 (UniProt Q5EBM0) -0.02
CMC1 (UniProt Q7Z7K0) 0.042
COA1 (UniProt Q9GZY4) 0.016
CINP isoform 3 (UniProt Q9BW66) 0.01
COA7 (UniProt Q96BR5) 0.054
CMC2 (UniProt Q9NRP2) -0.101
CIAO3 (UniProt Q9H6Q4) 0.035
CKMT1A (UniProt P12532) 0.033
COL18A1 (UniProt P39060) -0.037
CNPY2 (UniProt Q9Y2B0) -0.011
CLIC2 (UniProt O15247) 0.086
CLPTM1 (UniProt O96005) 0.016
CLGN (UniProt O14967) 0.01
CLCN7 (UniProt P51798) 0.107
CNOT3 (UniProt O75175) 0.072
CLDND1 (UniProt Q9NY35) -0.014
CNOT9 isoform 2 (UniProt Q92600) 0.044
CIAPIN1 (UniProt Q6FI81) 0.043
CKAP5 (UniProt Q14008) 0.048
CMBL (UniProt Q96DG6) 0.026
CLIP4 (UniProt Q8N3C7) 0.023
CKM (UniProt P06732) 0.08
CMAS (UniProt Q8NFW8) -0.055
CIAO1 (UniProt O76071) -0.073
CLIC4 (UniProt Q9Y696) 0.046
CLCC1 (UniProt Q96S66) 0.016
CLIP1 isoform 1 (UniProt P30622) -0.018

compound: O=C(O)c1ccc2c(c1)nc(Nc1cccc(Cl)c1)c1ccncc12 [silmitasertib]; assay: as above
Summary of the method: as §1

log2 fold change, inactive:
CHURC1 isoform 2 (UniProt Q8WUH1) -0.061
CMPK1 (UniProt P30085) 0.019
CHMP6 (UniProt Q96FZ7) -0.019
COA3 (UniProt Q9Y2R0) 0.015
CLPB isoform 2 (UniProt Q9H078) -0.005
CMPK2 (UniProt Q5EBM0) -0.021
CMC1 (UniProt Q7Z7K0) 0.133
COA1 (UniProt Q9GZY4) -0.016
CINP isoform 3 (UniProt Q9BW66) 0.064
COA7 (UniProt Q96BR5) -0.02
CMC2 (UniProt Q9NRP2) 0.007
CIAO3 (UniProt Q9H6Q4) -0.011
CKMT1A (UniProt P12532) -0.03
COL18A1 (UniProt P39060) 0.109
CNPY2 (UniProt Q9Y2B0) -0.012
CLIC2 (UniProt O15247) 0.029
CLPTM1 (UniProt O96005) 0.018
CLGN (UniProt O14967) 0.051
CLCN7 (UniProt P51798) 0.036
CNOT3 (UniProt O75175) 0.017
CLDND1 (UniProt Q9NY35) 0.046
CNOT9 isoform 2 (UniProt Q92600) 0.035
CIAPIN1 (UniProt Q6FI81) 0.029
CKAP5 (UniProt Q14008) 0.032
CMBL (UniProt Q96DG6) -0.017
CLIP4 (UniProt Q8N3C7) 0.114
CKM (UniProt P06732) 0.116
CMAS (UniProt Q8NFW8) 0.174
CIAO1 (UniProt O76071) -0.011
CLIC4 (UniProt Q9Y696) 0.019
CLCC1 (UniProt Q96S66) 0.031
CLIP1 isoform 1 (UniProt P30622) 0.014

compound: O=C1NC(=O)C(c2cnc3ccccn23)=C1c1cn2c3c(cc(F)cc13)CN(C(=O)N1CCCCC1)CC2; assay: as above
Summary of the method: as §1

log2 fold change, inactive:
CHURC1 isoform 2 (UniProt Q8WUH1) -0.124
CMPK1 (UniProt P30085) -0.029
CHMP6 (UniProt Q96FZ7) -0.123
COA3 (UniProt Q9Y2R0) -0.019
CLPB isoform 2 (UniProt Q9H078) -0.009
CMPK2 (UniProt Q5EBM0) -0.04
CMC1 (UniProt Q7Z7K0) 0.033
COA1 (UniProt Q9GZY4) -0.047
CINP isoform 3 (UniProt Q9BW66) 0.027
COA7 (UniProt Q96BR5) -0.007
CMC2 (UniProt Q9NRP2) -0.084
CIAO3 (UniProt Q9H6Q4) -0.046
CKMT1A (UniProt P12532) -0.018
COL18A1 (UniProt P39060) 0.178
CNPY2 (UniProt Q9Y2B0) -0.004
CLIC2 (UniProt O15247) -0.028
CLPTM1 (UniProt O96005) 0.086
CLGN (UniProt O14967) -0.133
CLCN7 (UniProt P51798) 0.021
CNOT3 (UniProt O75175) 0.006
CLDND1 (UniProt Q9NY35) 0
CNOT9 isoform 2 (UniProt Q92600) 0.023
CIAPIN1 (UniProt Q6FI81) -0.038
CKAP5 (UniProt Q14008) 0.141
CMBL (UniProt Q96DG6) -0.002
CLIP4 (UniProt Q8N3C7) -0.14
CKM (UniProt P06732) -0.077
CMAS (UniProt Q8NFW8) 0.137
CIAO1 (UniProt O76071) -0.02
CLIC4 (UniProt Q9Y696) -0.061
CLCC1 (UniProt Q96S66) 0.012
CLIP1 isoform 1 (UniProt P30622) -0.01
